For at least one compound, name, drawing or mass did not settle the structure.
System: KPC cells
Test: Survival in genetic mouse model of pancreatic cancer (KC mice) after orthotopic injection of KPC cells
Assay type: in vivo
Settings: KC mice orthotopically injected with 10^5 KPC cells; 2 mg/kg Rapamycin intraperitoneally daily from day 114; versus untreated control

CO[C@H]1C[C@@H]2CC[C@@H](C)[C@@](O)(O2)C(=O)C(=O)N2CCCC[C@H]2C(=O)O[C@H]([C@H](C)C[C@@H]2CC[C@@H](O)[C@H](OC)C2)CC(=O)[C@H](C)/C=C(\C)[C@@H](O)[C@@H](OC)C(=O)[C@H](C)C[C@H](C)/C=C/C=C/C=C/1C [Rapamycin]
effect on survival: failed to have a significant effect on survival

Source: patent US20160074494A1, “CANCER THERAPY” (priority 2013, published 2016)
